Experimental data: PubChem BioAssay AID1259308 (NCATS, 2017)

Assay: 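Knock-downs that increase output of a recombinant reporter protein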 (primary screen)
Cells: human HEK293 embryonic kidney cells stably expressing firefly luciferase (HEK-CMV-Luc2-Hygro)
Reagents: single siRNA against human genes, 0.8 pmol siRNA per well
Timing: 72 h
Detection: 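Luciferase light (ONE-Glo) measured on one replicate plate set and viability (CellTiter-Glo) on the other, scaled to a negative control siRNA, with robust z-scores and luciferase per cell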
Reading the numbers: total luciferase, z-score and total luciferase, % of control: higher = more reporter protein produced; luciferase per cell, z-score: higher = more reporter output per viable cell; viable cells, % of control: higher = more viable cells
Active means: 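Active when the median/MAD z-score for overall luciferase is greater than 3; a gene was taken forward for validation with new siRNAs if at least two of its three siRNAs passed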
Meaning of the calls: active = raised luciferase; inactive = no rise
The whole screen tested about 59,000 reagents; shown is a random part of them. About 1,510 of them (2.6%) were called active. 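Calls use total luciferase alone and ignore viability, so some active siRNAs may act by altering cell number.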 Reagents against one gene are numbered here.

gene,siRNA no.,"total luciferase, z-score","total luciferase, % of control","luciferase per cell, z-score","viable cells, % of control",activity call
DOCK5 (GeneID 80005),1,1.16,105,0.385,106,inactive
DOCK5 (GeneID 80005),2,2.77,137,2.01,90.1,inactive
DOCK5 (GeneID 80005),3,0.127,84.4,-0.291,102,inactive
NDST1 (GeneID 3340),1,1.47,111,0.774,101,inactive
NDST1 (GeneID 3340),2,0.174,85.3,0.695,79.4,inactive
NDST1 (GeneID 3340),3,-0.106,79.8,-0.0632,90.6,inactive
TAGAP (GeneID 117289),1,0.932,100,0.285,104,inactive
TAGAP (GeneID 117289),2,-2.38,34.6,-2.31,71,inactive
TAGAP (GeneID 117289),3,-0.129,79.3,-0.446,99.7,inactive
ENO3 (GeneID 2027),1,-1.09,60.2,-0.773,82.4,inactive
ENO3 (GeneID 2027),2,-0.51,71.7,-0.0186,80.6,inactive
ENO3 (GeneID 2027),3,2.54,132,1.43,101,inactive
DPEP3 (GeneID 64180),1,-1.14,59.3,-1.2,90.8,inactive
DPEP3 (GeneID 64180),2,0.0483,82.8,0.00704,92.4,inactive
DPEP3 (GeneID 64180),3,-0.693,68.1,0.23,71.6,inactive
SDHD (GeneID 6392),1,-1.88,44.4,-1.25,69,inactive
SDHD (GeneID 6392),2,-0.184,78.2,-0.243,93.2,inactive
SDHD (GeneID 6392),3,-0.388,74.2,-0.205,87.5,inactive
PSMA1 (GeneID 5682),1,0.336,88.6,1.23,71.5,inactive
PSMA1 (GeneID 5682),2,1.53,112,2.4,66.6,inactive
PSMA1 (GeneID 5682),3,-0.0157,81.6,1.4,63.1,inactive
FDX1 (GeneID 2230),1,-0.67,68.6,-1.14,103,inactive
FDX1 (GeneID 2230),2,-0.326,75.4,-0.452,94.9,inactive
FDX1 (GeneID 2230),3,-0.0157,81.6,-0.0529,92.4,inactive
ACTR3 (GeneID 10096),1,-0.0872,80.2,0.334,82,inactive
ACTR3 (GeneID 10096),2,-0.457,72.8,-0.789,100,inactive
ACTR3 (GeneID 10096),3,-1.17,58.7,-0.185,68.8,inactive
SEPTIN7P14 (GeneID 645513),1,0.0288,82.5,0.153,88.5,inactive
SEPTIN7P14 (GeneID 645513),2,-1.17,58.6,-0.312,71,inactive
SEPTIN7P14 (GeneID 645513),3,-0.874,64.5,-0.712,86.9,inactive
E2F5 (GeneID 1875),1,-0.905,63.9,-0.489,81.2,inactive
E2F5 (GeneID 1875),2,0.126,84.4,-0.248,101,inactive
E2F5 (GeneID 1875),3,3.28,147,1.92,99.2,active
C7orf25 (GeneID 79020),1,-1.72,47.7,-1.17,72.5,inactive
C7orf25 (GeneID 79020),2,1.17,105,1.23,85,inactive
C7orf25 (GeneID 79020),3,2.41,130,1.96,86.6,inactive
PAGE3 (GeneID 139793),1,0.425,90.3,0.931,79,inactive
PAGE3 (GeneID 139793),2,0.835,98.5,0.62,93.5,inactive
PAGE3 (GeneID 139793),3,0.281,87.5,-0.261,105,inactive
FIZ1 (GeneID 84922),1,0.0872,83.6,0.155,89.7,inactive
FIZ1 (GeneID 84922),2,-0.799,66,-0.949,94.7,inactive
FIZ1 (GeneID 84922),3,-0.295,76,-0.987,110,inactive
OR8D1 (GeneID 283159),1,-0.092,80.1,0.0787,87.6,inactive
OR8D1 (GeneID 283159),2,2.83,138,2.03,90.5,inactive
OR8D1 (GeneID 283159),3,-1.9,44,-0.422,55,inactive
ANKRD44 (GeneID 91526),1,-0.66,68.8,-0.436,86.2,inactive
ANKRD44 (GeneID 91526),2,0.423,90.3,0.96,78.4,inactive
ANKRD44 (GeneID 91526),3,-1.29,56.3,-0.539,72.5,inactive
FUT4 (GeneID 2526),1,0.568,93.2,0.966,80.8,inactive
FUT4 (GeneID 2526),2,0.76,97,0.292,100,inactive
FUT4 (GeneID 2526),3,0.17,85.3,0.999,73.2,inactive
DALRD3 (GeneID 55152),1,1.34,108,1.4,83.9,inactive
DALRD3 (GeneID 55152),2,-0.117,79.6,-0.0128,89.2,inactive
DALRD3 (GeneID 55152),3,1.05,103,0.959,89.1,inactive
SAP30BP (GeneID 29115),1,-0.197,78,-0.189,91.6,inactive
SAP30BP (GeneID 29115),2,0.0491,82.9,1.04,70.5,inactive
SAP30BP (GeneID 29115),3,3.48,151,3.43,68.5,active
EXOC5P1 (GeneID 644548),1,0.76,97,1.44,74.2,inactive
EXOC5P1 (GeneID 644548),2,-0.199,77.9,-0.0616,88.5,inactive
EXOC5P1 (GeneID 644548),3,-2.21,38,-1.78,67.8,inactive
CYP8B1 (GeneID 1582),1,0.614,94.1,0.695,87.6,inactive
CYP8B1 (GeneID 1582),2,0.607,94,-0.0898,108,inactive
CYP8B1 (GeneID 1582),3,0.287,87.6,1.66,63.3,inactive
NAT9 (GeneID 26151),1,-0.382,74.3,0.116,80.5,inactive
NAT9 (GeneID 26151),2,-0.0495,80.9,1.02,69.2,inactive
NAT9 (GeneID 26151),3,-0.954,62.9,0.18,67,inactive
RRBP1 (GeneID 6238),1,2.07,123,2.27,75.6,inactive
RRBP1 (GeneID 6238),2,0.246,86.8,0.546,84,inactive
RRBP1 (GeneID 6238),3,0.0831,83.5,0.813,75.4,inactive
DRAM2 (GeneID 128338),1,-0.126,79.4,-0.437,99.5,inactive
DRAM2 (GeneID 128338),2,0.296,87.8,0.12,95,inactive
DRAM2 (GeneID 128338),3,0.11,84.1,-0.809,116,inactive
HPS6 (GeneID 79803),1,-0.115,79.6,-0.173,93.1,inactive
HPS6 (GeneID 79803),2,0.594,93.7,0.0811,102,inactive
HPS6 (GeneID 79803),3,1.92,120,1.14,99.6,inactive

Part of the list above, reformatted:
{"gene":"CYP8B1 (GeneID 1582)","siRNA no.":3,"total luciferase, z-score":0.287,"total luciferase, % of control":87.6,"luciferase per cell, z-score":1.66,"viable cells, % of control":63.3,"activity call":"inactive"}
{"gene":"NAT9 (GeneID 26151)","siRNA no.":1,"total luciferase, z-score":-0.382,"total luciferase, % of control":74.3,"luciferase per cell, z-score":0.116,"viable cells, % of control":80.5,"activity call":"inactive"}
{"gene":"NAT9 (GeneID 26151)","siRNA no.":2,"total luciferase, z-score":-0.0495,"total luciferase, % of control":80.9,"luciferase per cell, z-score":1.02,"viable cells, % of control":69.2,"activity call":"inactive"}
{"gene":"NAT9 (GeneID 26151)","siRNA no.":3,"total luciferase, z-score":-0.954,"total luciferase, % of control":62.9,"luciferase per cell, z-score":0.18,"viable cells, % of control":67,"activity call":"inactive"}
{"gene":"RRBP1 (GeneID 6238)","siRNA no.":1,"total luciferase, z-score":2.07,"total luciferase, % of control":123,"luciferase per cell, z-score":2.27,"viable cells, % of control":75.6,"activity call":"inactive"}
{"gene":"RRBP1 (GeneID 6238)","siRNA no.":2,"total luciferase, z-score":0.246,"total luciferase, % of control":86.8,"luciferase per cell, z-score":0.546,"viable cells, % of control":84,"activity call":"inactive"}
{"gene":"RRBP1 (GeneID 6238)","siRNA no.":3,"total luciferase, z-score":0.0831,"total luciferase, % of control":83.5,"luciferase per cell, z-score":0.813,"viable cells, % of control":75.4,"activity call":"inactive"}
{"gene":"DRAM2 (GeneID 128338)","siRNA no.":1,"total luciferase, z-score":-0.126,"total luciferase, % of control":79.4,"luciferase per cell, z-score":-0.437,"viable cells, % of control":99.5,"activity call":"inactive"}
{"gene":"DRAM2 (GeneID 128338)","siRNA no.":2,"total luciferase, z-score":0.296,"total luciferase, % of control":87.8,"luciferase per cell, z-score":0.12,"viable cells, % of control":95,"activity call":"inactive"}
